Source: the supplement of paper PMC10849652
The other results are listed elsewhere or left out.

Protein sequences, listed by entry. Tags and fused reporters are not part of them. Lines headed by an entry give the natural chain unless they say otherwise; changes in a name come on top.
UniProt O75792: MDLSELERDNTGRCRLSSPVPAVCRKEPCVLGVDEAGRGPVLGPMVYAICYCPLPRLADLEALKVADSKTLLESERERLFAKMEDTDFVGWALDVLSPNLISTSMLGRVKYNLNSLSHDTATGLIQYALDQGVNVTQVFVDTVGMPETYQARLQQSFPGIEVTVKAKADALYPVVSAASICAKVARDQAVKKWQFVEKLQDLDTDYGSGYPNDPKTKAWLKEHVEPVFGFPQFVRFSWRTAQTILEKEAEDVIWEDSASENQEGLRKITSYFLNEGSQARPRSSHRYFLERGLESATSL
UniProt Q9BQY4: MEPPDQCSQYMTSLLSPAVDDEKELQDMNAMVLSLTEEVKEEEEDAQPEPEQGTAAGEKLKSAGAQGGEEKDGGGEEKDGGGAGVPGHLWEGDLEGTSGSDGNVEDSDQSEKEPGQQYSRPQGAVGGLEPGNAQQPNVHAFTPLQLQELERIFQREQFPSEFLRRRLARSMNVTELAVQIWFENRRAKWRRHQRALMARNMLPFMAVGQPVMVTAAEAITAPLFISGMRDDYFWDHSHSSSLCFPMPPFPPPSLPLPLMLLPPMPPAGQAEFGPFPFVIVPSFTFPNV
UniProt Q96EP0: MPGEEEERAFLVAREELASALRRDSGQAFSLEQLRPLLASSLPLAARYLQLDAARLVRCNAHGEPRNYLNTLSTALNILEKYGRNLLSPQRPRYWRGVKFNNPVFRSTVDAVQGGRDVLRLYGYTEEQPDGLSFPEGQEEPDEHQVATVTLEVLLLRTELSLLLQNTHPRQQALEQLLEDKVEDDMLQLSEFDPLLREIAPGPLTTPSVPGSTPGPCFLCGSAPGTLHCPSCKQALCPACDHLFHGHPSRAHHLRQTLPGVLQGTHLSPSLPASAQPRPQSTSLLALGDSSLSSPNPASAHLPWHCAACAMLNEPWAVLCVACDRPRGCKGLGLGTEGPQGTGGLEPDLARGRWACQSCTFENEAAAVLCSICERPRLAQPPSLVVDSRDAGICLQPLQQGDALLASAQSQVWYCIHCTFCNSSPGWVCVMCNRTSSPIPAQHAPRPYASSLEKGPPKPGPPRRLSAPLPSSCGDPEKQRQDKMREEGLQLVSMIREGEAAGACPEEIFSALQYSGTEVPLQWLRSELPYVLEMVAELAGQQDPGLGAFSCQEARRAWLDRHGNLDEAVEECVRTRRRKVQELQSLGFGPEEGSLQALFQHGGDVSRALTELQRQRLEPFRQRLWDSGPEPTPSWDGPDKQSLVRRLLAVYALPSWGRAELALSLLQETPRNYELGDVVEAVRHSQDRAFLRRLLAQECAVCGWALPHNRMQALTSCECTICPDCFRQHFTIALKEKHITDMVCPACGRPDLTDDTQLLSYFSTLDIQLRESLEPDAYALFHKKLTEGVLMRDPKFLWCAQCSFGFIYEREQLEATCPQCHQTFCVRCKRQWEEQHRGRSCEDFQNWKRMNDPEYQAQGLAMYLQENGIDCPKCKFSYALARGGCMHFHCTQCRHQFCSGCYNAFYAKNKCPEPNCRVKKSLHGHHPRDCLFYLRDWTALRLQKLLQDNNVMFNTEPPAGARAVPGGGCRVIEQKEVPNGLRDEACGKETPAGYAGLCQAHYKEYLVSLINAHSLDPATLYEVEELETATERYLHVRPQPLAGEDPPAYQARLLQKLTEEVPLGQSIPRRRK
UniProt Q5TBB1: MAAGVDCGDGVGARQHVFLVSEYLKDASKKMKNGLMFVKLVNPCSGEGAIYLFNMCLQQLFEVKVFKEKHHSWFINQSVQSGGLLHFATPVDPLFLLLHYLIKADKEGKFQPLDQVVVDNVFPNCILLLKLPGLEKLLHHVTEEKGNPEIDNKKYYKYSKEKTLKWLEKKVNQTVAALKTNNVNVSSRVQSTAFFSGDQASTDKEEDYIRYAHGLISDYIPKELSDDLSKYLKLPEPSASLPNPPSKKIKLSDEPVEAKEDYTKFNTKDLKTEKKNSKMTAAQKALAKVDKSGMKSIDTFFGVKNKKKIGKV
UniProt O43353, whole entry, looked up: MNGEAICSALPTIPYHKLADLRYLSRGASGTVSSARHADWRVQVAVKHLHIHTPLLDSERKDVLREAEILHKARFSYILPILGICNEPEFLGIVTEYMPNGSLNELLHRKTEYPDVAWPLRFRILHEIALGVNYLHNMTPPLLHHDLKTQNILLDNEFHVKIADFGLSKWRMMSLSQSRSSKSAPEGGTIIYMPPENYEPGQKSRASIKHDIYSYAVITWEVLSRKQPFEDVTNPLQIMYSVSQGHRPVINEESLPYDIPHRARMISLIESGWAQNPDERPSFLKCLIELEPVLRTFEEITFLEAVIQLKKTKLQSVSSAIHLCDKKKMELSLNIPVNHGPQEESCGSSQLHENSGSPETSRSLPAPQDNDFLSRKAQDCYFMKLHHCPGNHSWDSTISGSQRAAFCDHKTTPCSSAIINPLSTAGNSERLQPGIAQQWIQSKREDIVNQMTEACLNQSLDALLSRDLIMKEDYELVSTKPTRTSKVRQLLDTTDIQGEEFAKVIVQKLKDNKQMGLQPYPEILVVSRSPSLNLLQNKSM
UniProt Q9NWS8: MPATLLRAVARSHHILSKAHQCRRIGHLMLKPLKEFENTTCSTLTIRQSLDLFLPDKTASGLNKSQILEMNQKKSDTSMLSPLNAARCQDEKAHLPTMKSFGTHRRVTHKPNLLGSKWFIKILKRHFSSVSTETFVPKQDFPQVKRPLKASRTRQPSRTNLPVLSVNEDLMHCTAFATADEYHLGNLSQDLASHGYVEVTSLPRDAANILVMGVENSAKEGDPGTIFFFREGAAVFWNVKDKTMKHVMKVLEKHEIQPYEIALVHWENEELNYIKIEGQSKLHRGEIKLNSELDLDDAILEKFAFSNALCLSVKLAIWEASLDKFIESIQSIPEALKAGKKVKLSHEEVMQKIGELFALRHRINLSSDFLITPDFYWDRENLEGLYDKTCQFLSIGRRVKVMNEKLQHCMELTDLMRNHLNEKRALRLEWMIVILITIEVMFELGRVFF
UniProt Q96AT9: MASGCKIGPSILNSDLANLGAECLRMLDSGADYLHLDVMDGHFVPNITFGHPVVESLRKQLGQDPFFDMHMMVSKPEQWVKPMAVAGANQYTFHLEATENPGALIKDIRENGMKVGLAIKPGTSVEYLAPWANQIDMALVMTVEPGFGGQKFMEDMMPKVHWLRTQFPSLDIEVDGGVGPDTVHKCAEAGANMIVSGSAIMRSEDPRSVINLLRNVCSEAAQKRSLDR
UniProt Q8IUF8: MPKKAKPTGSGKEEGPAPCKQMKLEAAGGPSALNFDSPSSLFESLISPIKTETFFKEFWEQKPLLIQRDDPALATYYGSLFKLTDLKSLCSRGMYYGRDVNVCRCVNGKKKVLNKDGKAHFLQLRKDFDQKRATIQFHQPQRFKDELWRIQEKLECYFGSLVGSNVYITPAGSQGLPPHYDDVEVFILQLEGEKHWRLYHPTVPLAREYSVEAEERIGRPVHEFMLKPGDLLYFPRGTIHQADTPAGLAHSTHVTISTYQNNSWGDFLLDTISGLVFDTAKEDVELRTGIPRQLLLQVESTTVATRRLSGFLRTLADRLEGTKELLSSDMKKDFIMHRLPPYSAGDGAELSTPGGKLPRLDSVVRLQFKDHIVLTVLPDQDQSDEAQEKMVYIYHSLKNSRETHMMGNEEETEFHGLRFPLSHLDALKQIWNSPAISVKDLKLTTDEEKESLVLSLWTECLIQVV
UniProt Q9UBS8: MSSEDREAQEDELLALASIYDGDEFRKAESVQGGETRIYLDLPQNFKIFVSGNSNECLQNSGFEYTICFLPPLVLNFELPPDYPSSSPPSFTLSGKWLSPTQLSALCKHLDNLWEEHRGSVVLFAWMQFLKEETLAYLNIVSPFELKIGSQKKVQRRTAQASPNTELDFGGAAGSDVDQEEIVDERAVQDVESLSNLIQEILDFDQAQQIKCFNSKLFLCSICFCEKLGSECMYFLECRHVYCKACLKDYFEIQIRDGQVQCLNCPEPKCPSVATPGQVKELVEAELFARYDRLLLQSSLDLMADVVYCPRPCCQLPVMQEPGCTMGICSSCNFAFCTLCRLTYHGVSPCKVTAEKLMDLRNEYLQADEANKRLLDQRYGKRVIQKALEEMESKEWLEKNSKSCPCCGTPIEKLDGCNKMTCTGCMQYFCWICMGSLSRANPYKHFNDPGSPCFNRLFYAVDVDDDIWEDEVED
UniProt P35244: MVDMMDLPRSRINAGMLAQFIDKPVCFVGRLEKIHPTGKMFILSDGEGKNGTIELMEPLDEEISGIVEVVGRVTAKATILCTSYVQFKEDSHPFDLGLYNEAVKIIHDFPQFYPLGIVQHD
UniProt Q6ZS11: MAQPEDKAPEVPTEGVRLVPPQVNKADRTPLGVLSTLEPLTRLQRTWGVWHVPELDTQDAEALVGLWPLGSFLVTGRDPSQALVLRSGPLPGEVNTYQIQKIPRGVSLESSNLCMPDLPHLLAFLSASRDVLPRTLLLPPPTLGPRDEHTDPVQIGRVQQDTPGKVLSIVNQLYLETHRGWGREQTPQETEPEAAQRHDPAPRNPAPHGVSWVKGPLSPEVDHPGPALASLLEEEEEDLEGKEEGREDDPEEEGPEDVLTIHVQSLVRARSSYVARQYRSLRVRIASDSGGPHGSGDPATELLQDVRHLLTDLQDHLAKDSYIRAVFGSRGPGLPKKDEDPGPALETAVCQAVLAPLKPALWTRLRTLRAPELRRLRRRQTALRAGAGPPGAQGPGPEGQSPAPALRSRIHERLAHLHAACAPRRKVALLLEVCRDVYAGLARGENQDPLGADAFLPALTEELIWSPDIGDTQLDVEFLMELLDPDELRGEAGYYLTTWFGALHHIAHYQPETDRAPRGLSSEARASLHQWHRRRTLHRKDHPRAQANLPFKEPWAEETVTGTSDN
UniProt O75116: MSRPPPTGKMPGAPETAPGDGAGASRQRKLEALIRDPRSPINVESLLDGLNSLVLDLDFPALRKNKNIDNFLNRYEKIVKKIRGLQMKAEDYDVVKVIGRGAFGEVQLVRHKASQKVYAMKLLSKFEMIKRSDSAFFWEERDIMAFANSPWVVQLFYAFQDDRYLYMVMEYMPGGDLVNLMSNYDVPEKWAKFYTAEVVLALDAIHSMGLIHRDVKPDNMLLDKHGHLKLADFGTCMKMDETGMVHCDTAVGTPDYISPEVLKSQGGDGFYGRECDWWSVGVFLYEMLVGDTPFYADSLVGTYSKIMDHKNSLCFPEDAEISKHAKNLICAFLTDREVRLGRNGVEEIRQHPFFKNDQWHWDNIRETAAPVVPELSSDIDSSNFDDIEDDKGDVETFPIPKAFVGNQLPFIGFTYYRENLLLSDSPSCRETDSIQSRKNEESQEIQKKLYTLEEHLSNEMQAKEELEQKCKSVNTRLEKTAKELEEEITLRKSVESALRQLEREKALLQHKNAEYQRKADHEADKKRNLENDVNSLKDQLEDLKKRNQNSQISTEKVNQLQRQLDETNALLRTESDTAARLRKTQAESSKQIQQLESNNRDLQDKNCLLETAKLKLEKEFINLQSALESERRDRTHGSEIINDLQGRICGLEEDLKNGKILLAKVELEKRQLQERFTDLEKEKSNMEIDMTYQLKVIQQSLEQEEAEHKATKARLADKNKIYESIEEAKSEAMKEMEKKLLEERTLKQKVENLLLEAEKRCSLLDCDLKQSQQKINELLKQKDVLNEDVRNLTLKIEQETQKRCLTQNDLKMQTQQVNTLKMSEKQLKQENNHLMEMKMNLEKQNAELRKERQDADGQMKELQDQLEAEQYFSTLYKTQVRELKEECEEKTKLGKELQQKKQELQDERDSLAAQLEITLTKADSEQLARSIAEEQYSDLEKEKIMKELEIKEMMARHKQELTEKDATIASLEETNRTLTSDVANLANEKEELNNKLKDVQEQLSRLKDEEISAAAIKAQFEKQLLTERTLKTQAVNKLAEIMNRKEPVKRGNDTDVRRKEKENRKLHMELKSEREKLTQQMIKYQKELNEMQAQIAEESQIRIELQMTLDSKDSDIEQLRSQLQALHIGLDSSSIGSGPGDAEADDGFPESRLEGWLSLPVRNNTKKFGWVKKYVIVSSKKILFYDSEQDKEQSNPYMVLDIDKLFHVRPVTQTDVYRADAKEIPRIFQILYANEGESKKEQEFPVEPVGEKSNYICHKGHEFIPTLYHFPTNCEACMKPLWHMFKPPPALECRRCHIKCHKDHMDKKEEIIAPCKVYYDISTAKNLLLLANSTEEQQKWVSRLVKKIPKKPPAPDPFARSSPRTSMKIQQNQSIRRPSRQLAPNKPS
UniProt O75695: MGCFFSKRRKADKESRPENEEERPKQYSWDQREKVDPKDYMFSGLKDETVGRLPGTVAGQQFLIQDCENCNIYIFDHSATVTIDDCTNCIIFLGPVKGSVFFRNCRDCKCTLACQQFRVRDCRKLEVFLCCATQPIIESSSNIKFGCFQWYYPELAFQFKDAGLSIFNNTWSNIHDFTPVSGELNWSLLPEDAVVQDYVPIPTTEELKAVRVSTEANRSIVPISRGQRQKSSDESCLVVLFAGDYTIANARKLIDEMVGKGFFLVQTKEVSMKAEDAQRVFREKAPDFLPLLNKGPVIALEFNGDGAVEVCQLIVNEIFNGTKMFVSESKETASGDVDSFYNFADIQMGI

Tests used:
Experiment in all cases: log2 fold change, soluble protein after heating vs DMSO (PISA); higher = thermal stabilisation; K562 lysate, 10 uM; active = over 0.2 and 3.5 SD of the protein, either way, in both replicates (recomputed)
[1] = compound: CS(=O)(=O)CCNCc1ccc(-c2ccc3ncnc(Nc4ccc(OCc5cccc(F)c5)c(Cl)c4)c3c2)o1 [lapatinib]
In short: (§1)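 Following dounce homogenisation of K562 pellets in PBS pH 7.4 with 1 mM MgCl2, crude extract at 1 mg/mL protein was incubated for 30 min with 10 μM compound. Aliquots were then heated for 3 min over 48°C-58°C and pooled, NP-40 was added to 0.5% at 4°C, and soluble protein was recovered as the supernatant at 21,000xg for 90 min. Channel-sum-equalised TMTpro 16plex LC-MS/MS quantified this protein. Each value, from duplicates, is a log-two fold change in thermal stability relative to solvent controls.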

[2] = compound: CS(=O)(=O)N1CCN(Cc2cc3nc(-c4cccc5[nH]ncc45)nc(N4CCOCC4)c3s2)CC1 [pictilisib]
In short: as §1

[3] = compound: C[C@@H](Oc1cc(-c2cnn(C3CCNCC3)c2)cnc1N)c1c(Cl)ccc(F)c1Cl [crizotinib]
In short: as §1

[4] = compound: C[C@H](C1=CC=C(C=C1)C(=O)NC2=C3C=CNC3=NC=C2)N
In short: as §1

[5] = compound: C[C@H](Nc1ncnc2nc[nH]c12)c1cc2cccc(Cl)c2c(=O)n1-c1ccccc1 [duvelisib]
In short: as §1

[6] = compound: Cc1cc(Nc2cc(CN3CCOCC3)c3nc(C)c(Cc4ccc(Cl)cc4F)n3n2)n[nH]1 [gandotinib]
In short: as §1

[7] = compound: Cc1cc(Nc2cc(N3CCN(C)CC3)nc(Sc3ccc(NC(=O)C4CC4)cc3)n2)n[nH]1 [tozasertib]
In short: as §1

[8] = compound: Cc1ccc(-n2nc(C(C)(C)C)cc2NC(=O)Nc2ccc(OCCN3CCOCC3)c3ccccc23)cc1 [doramapimod]
In short: as §1

[9] = compound: Cc1ccc(NC(=O)c2ccc(CN3CC[C@H](N(C)C)C3)c(C(F)(F)F)c2)cc1Nc1nccc(-c2cncnc2)n1 [bafetinib]
In short: as §1

[10] = compound: Cc1cccc(CC(=O)N2CCc3c2ccc(-c2cn(C)c4ncnc(N)c24)c3F)n1
In short: as §1

Measured: log2 fold change

RNASEH2A (UniProt O75792)
inactive: [1] -0.006 | [2] 0.027 | [3] 0.013 | [4] -0.04 | [5] 0.005 | [6] 0.015 | [7] 0.055 | [8] 0.066 | [9] 0.013 | [10] 0.001

RPL27A (UniProt P46776)
inactive: [1] 0.007 | [2] 0.038 | [3] -0.03 | [4] 0.029 | [5] 0.073 | [6] -0.016 | [7] -0.013 | [8] -0.009 | [9] 0.028 | [10] 0.048

RHOXF2 (UniProt Q9BQY4)
inactive: [1] 0.045 | [2] 0.05 | [3] 0.007 | [4] -0.029 | [5] 0.013 | [6] 0 | [7] 0.011 | [8] -0.081 | [9] -0.028 | [10] 0.091

RNF31 (UniProt Q96EP0)
inactive: [1] 0.082 | [2] -0.051 | [3] -0.009 | [4] 0.014 | [5] -0.008 | [6] -0.006 | [7] 0.022 | [8] -0.034 | [9] 0.053 | [10] -0.014

RNASEH2B (UniProt Q5TBB1)
inactive: [1] 0.001 | [2] 0.039 | [3] -0.049 | [4] 0.126 | [5] 0.03 | [6] -0.126 | [7] 0.055 | [8] 0.041 | [9] 0.027 | [10] -0.064

RPL11 (UniProt P62913)
inactive: [1] 0.024 | [2] 0.006 | [3] -0.044 | [4] -0.005 | [5] 0.086 | [6] -0.025 | [7] -0.025 | [8] 0.039 | [9] 0.009 | [10] 0.026

RPL21 (UniProt P46778)
inactive: [1] -0.035 | [2] 0.016 | [3] -0.02 | [4] 0.009 | [5] 0.023 | [6] 0.016 | [7] -0.06 | [8] -0.034 | [9] -0.045 | [10] 0.042

RNF213, A0A0A0MTC1
inactive: [1] -0.012 | [2] -0.014 | [3] -0.064 | [4] -0.043 | [5] 0.008 | [6] -0.123 | [7] 0.043 | [8] 0.033 | [9] -0.066 | [10] 0.052

RPL36 (UniProt Q9Y3U8)
inactive: [1] -0.022 | [2] -0.003 | [3] -0.026 | [4] -0.107 | [5] 0.013 | [6] 0.023 | [7] -0.073 | [8] 0.013 | [9] -0.005 | [10] 0.045

RPL23 (UniProt P62829)
inactive: [1] 0.017 | [2] 0.008 | [3] -0.011 | [4] -0.013 | [5] 0.028 | [6] -0.003 | [7] -0.022 | [8] -0.012 | [9] 0.015 | [10] 0.007

RNF166 (UniProt Q96A37)
inactive: [1] 0.172 | [2] 0.026 | [3] -0.071 | [4] 0.408 | [5] 0.044 | [6] -0.304 | [7] 0.062 | [8] 0.019 | [9] -0.05 | [10] 0.21

RIPK2 (UniProt O43353)
inactive: [1] 0.019 | [2] -0.088 | [3] 0.029 | [4] 0.105 | [5] -0.001 | [6] -0.033 | [7] 0 | [8] 0.06 | [9] 0.046 | [10] -0.095

RPL35A (UniProt P18077)
inactive: [1] 0.016 | [2] 0.05 | [3] -0.004 | [4] -0.098 | [5] 0.027 | [6] 0.051 | [7] 0.028 | [8] -0.001 | [9] 0.052 | [10] 0.067

RPL10 (UniProt P27635)
inactive: [1] -0.02 | [2] -0.011 | [3] 0.023 | [4] 0.154 | [5] 0.034 | [6] -0.118 | [7] 0.014 | [8] -0.033 | [9] 0.019 | [10] -0.116

RPL23A (UniProt P62750)
inactive: [1] -0.021 | [2] 0.016 | [3] 0.025 | [4] 0.186 | [5] 0.004 | [6] -0.095 | [7] -0.014 | [8] -0.042 | [9] 0.016 | [10] -0.129

RMND1 (UniProt Q9NWS8)
inactive: [1] 0.02 | [2] -0.073 | [3] -0.021 | [4] -0.059 | [5] -0.077 | [6] 0.01 | [7] 0.06 | [8] -0.071 | [9] -0.07 | [10] 0.024

RPL32 (UniProt P62910)
inactive: [1] -0.001 | [2] -0.014 | [3] 0.006 | [4] 0.073 | [5] 0.008 | [6] -0.026 | [7] -0.112 | [8] -0.045 | [9] 0.07 | [10] -0.019

RINT1 (UniProt Q6NUQ1)
inactive: [1] -0.069 | [2] -0.065 | [3] -0.06 | [4] -0.058 | [5] 0.046 | [6] -0.039 | [7] 0.025 | [8] 0.069 | [9] -0.058 | [10] 0.132

RPE (UniProt Q96AT9)
inactive: [1] 0.082 | [2] -0.07 | [3] 0.034 | [4] 0.091 | [5] 0.066 | [6] -0.112 | [7] -0.013 | [8] -0.031 | [9] 0.25 | [10] -0.03

RIOX2 (UniProt Q8IUF8)
inactive: [1] -0.07 | [2] -0.022 | [3] -0.111 | [4] 0.105 | [5] 0.005 | [6] -0.178 | [7] -0.017 | [8] 0.003 | [9] -0.059 | [10] -0.084

RPL17 isoform 3 (UniProt P18621)
inactive: [1] 0.027 | [2] 0.049 | [3] 0.006 | [4] 0.072 | [5] -0.004 | [6] -0.052 | [7] -0.029 | [8] -0.053 | [9] 0.081 | [10] -0.065

RNF14 (UniProt Q9UBS8)
inactive: [1] -0.026 | [2] -0.018 | [3] -0.046 | [4] 0.011 | [5] 0.016 | [6] -0.019 | [7] 0 | [8] 0.069 | [9] -0.045 | [10] 0.026

RPA3 (UniProt P35244)
inactive: [1] 0.07 | [2] 0.016 | [3] 0.018 | [4] 0.039 | [5] 0 | [6] -0.066 | [7] -0.008 | [8] 0.016 | [9] 0.037 | [10] -0.07

RINL (UniProt Q6ZS11)
inactive: [1] -0.1 | [2] 0.065 | [4] -0.145 | [5] -0.123 | [6] -0.218 | [7] 0.325 | [9] -0.009 | [10] 0.096

RPL34 (UniProt P49207)
inactive: [1] -0.055 | [2] 0.02 | [3] -0.032 | [4] -0.003 | [5] 0.021 | [6] -0.014 | [7] -0.003 | [8] 0.012 | [9] -0.021 | [10] 0.008

Two entries drawn at random from those above, as already listed:
RINL (UniProt Q6ZS11)
inactive: [1] -0.1 | [2] 0.065 | [4] -0.145 | [5] -0.123 | [6] -0.218 | [7] 0.325 | [9] -0.009 | [10] 0.096

RPL17 isoform 3 (UniProt P18621)
inactive: [1] 0.027 | [2] 0.049 | [3] 0.006 | [4] 0.072 | [5] -0.004 | [6] -0.052 | [7] -0.029 | [8] -0.053 | [9] 0.081 | [10] -0.065

(continued)

ROCK2 (UniProt O75116)
inactive: [1] -0.012 | [2] -0.013 | [3] 0.04 | [4] 0.22 | [5] 0 | [6] -0.079 | [7] -0.026 | [8] -0.004 | [9] -0.044 | [10] 0.016

ROCK1 (UniProt Q13464)
inactive: [1] -0.003 | [2] -0.021 | [3] 0.011 | [5] 0.006 | [6] -0.04 | [7] 0.027 | [8] -0.025 | [9] -0.016 | [10] 0.031

RP2 (UniProt O75695)
inactive: [1] -0.022 | [2] -0.084 | [3] 0.022 | [4] 0.073 | [5] -0.062 | [6] -0.06 | [7] 0.052 | [8] -0.027 | [9] -0.055 | [10] -0.008
